# Test results from the supplement of paper PMC8256030.
# Values joined by “and” are separate entries in the source; they are usually repeats but may differ in a detail not shown here. Identical values can stand only once. This is one part of the list. Single values are uncertain here, since repeats match poorly.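 HEK293T cells were given each compound shortly before transfection with a reporter in which red mCherry is followed by the SARS-CoV-2 frameshift element and then GFP in the −1 frame, so GFP appears only after frameshifting.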
# System: SARS-CoV-2 -1 PRF reporter mCherry-FSE-GFP(-1)
# Test: mCherry (red) intensity as percent of control; higher = higher upstream reporter expression
# Details: 10 µM; 24 h; HEK293T
row,Structure (SMILES),mCherry
1,CN(C)C(=N)NC(=N)N [Metformin],99.8%
2,NC(C(=O)O)C(O)c1ccc(O)c(O)c1 (stereo unspecified),87.5%
3,CCCCCCCCCCCCC[N+](C)(C)Cc1ccccc1,75.5%
4,C[C@@H]1NC(=O)[C@@H](N)CNC(=O)[C@H](C2CCNC(=N)N2)NC(=O)/C(=C/NC(N)=O)NC(=O)[C@H](CNC(=O)CC(N)CCCN)NC1=O.N=C1NCC[C@H]([C@@H]2NC(=O)/C(=C/NC(N)=O)NC(=O)[C@H](CNC(=O)C[C@@H](N)CCCN)NC(=O)[C@H](CO)NC(=O)[C@@H](N)CNC2=O)N1 [Capreomycin],45.3%
5,CN1C2CCCC1CC(NC(=O)c1nn(C)c3ccccc13)C2 (stereo unspecified) [Granisetron],96.9%
6,CC(CCc1ccccc1)NCC(O)c1ccc(O)c(C(N)=O)c1 (stereo unspecified) [labetalol],98.4%
7,CO[C@@H]1[C@H](OC(=O)/C=C/C=C/C=C/C=C/C(=O)O)CC[C@]2(CO2)[C@H]1[C@@]1(C)O[C@@H]1CC=C(C)C [Fumagillin],67.9%
8,N#C[C@@H]1CCCN1C(=O)CNC12CC3CC(CC(O)(C3)C1)C2 [vildagliptin],88.1%
9,COc1cc(C)c(/C=C/C(C)=C/C=C/C(C)=C/C(=O)O)c(C)c1C [acitretin],94% and 99.7%
10,NC(CSSCC(N)C(=O)O)C(=O)O (stereo unspecified),116%
11,NS(=O)(=O)c1cc2c(cc1Cl)N=C(CSCc1ccccc1)NS2(=O)=O,122%
12,CN1C[C@@H]2C[C@H]1CN2c1cc2c(cc1F)c(=O)c(C(=O)O)cn2C1CC1 [danofloxacin],99.8%
13,CN(C)CC/C=C1\c2ccccc2CSc2ccccc21 [dosulepin],87.9%
14,O=C(C(Cl)Cl)N(CCO)Cc1ccc(Oc2ccc([N+](=O)[O-])cc2)cc1 [clefamide],32.4%
15,O=C(O)Cn1cc(I)c(=O)c(I)c1 [diodone],111%
16,CCOC(Nc1ccc(C(=O)O)cc1)C(=O)c1ccc(-c2ccccc2)cc1 (stereo unspecified) [xenazoic acid],79.1%
17,C[C@H](N)[C@H](O)c1cccc(O)c1,115%
18,C[C@H]1[C@H](NC(=O)/C(=N\OC(C)(C)C(=O)O)c2csc(N)n2)C(=O)N1S(=O)(=O)O [Azactam],128%
19,CO[C@H]1C[C@H](O[C@@H]2/C(C)=C/C[C@@H]3C[C@@H](C[C@]4(CC[C@H](C)[C@@H](C5CCCCC5)O4)O3)OC(=O)[C@@H]3C=C(C)/C(=N/O)[C@H]4OC/C(=C\C=C\[C@@H]2C)[C@]43O)O[C@@H](C)[C@@H]1O,117%
20,C=C1c2cccc(O)c2C(O)=C2C(=O)[C@]3(O)C(O)=C(C(N)=O)C(=O)[C@@H](N(C)C)[C@@H]3[C@@H](O)[C@H]12,86.6%
21,C=C1/C(=C\C=C2/CCC[C@]3(C)[C@@H]([C@H](C)CCCC(C)(C)O)CC[C@@H]23)C[C@@H](O)C[C@@H]1O [calcitriol],92.6% and 101%
22,C#CC(C)(CC)OC(=O)c1ccccc1C(=O)O (stereo unspecified) [ftalofyne],84.4%
23,N=C(N)NCC1COC2(CCCCC2)O1 (stereo unspecified),86.8%
24,CC1(C)[C@@H]2CC[C@@]1(C)C(=O)C2,82.5%
25,Nc1nc2c(ncn2COC(CO)CO)c(=O)[nH]1 [Ganciclovir],80.7%
26,COc1c2ccoc2cc2oc(=O)ccc12,104%
